Results as given in the supplement of paper PMC6078165.
The reference is the same well before dosing, and untreated signal decays as well.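 Labels refer to human fibroblasts, largely primary: uterine (C12385, HUF), lung (H6013), bone (Hs27A), adrenal (HADF), skin (WS1), plus mammary HMF and breast cancer-associated Hs343T. Cancer lines are basal-like or mesenchymal-like triple-negative breast cancer. The paper counts as hits responses shifting over 3x the replicate standard deviation. The tissue of the other fibroblasts is not given here.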

System: HCC1143
Test: relative JC-1 red fluorescence (viability) vs pre-drug, coculture with fibroblast (fraction); higher = more viable cancer cells
Method: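 JC-1 labelled TNBC cells cocultured 1:1 (1,500 cells each) with CellTrace Violet stained primary or stromal fibroblasts in 384-well plates in FluoroBrite medium, treated with one of 42 anticancer drugs at 0.1, 1, 10 or 100 uM. JC-1 red fluorescence (mitochondrial integrity in cancer cells only) was read by plate reader every 8 h for 72 h. Values are normalised to each well's pre-drug value. The stock of one drug was tenfold lower, so its dose labels may be too high.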

CO[C@H]1C[C@@H]2CC[C@@H](C)[C@@](O)(O2)C(=O)C(=O)N2CCCC[C@H]2C(=O)O[C@H]([C@H](C)C[C@@H]2CC[C@@H](OCCO)[C@H](OC)C2)CC(=O)[C@H](C)/C=C(\C)[C@@H](O)[C@@H](OC)C(=O)[C@H](C)C[C@H](C)/C=C/C=C/C=C/1C [Everolimus]
relative JC-1 red fluorescence
Settings	8 h	16 h	24 h	32 h	40 h	48 h	56 h	64 h	72 h
0.1 µM, coculture fibroblast: C12385	0.8324	0.718	0.6593	0.586	0.525	0.48	0.441	0.41	0.394
0.1 µM, coculture fibroblast: H6013	0.719	0.621	0.578	0.56	0.5	0.49	0.458	0.447	0.422
0.1 µM, coculture fibroblast: H6019	0.7622	0.671	0.61	0.558	0.519	0.497	0.463	0.432	0.415
0.1 µM, coculture fibroblast: H6076	0.769	0.8239	0.731	0.649	0.614	0.579	0.535	0.509	0.52
0.1 µM, coculture fibroblast: H6231	0.828	0.828	0.733	0.637	0.6	0.572	0.533	0.497	0.484
0.1 µM, coculture fibroblast: HADF	0.737	0.6844	0.6551	0.6451	0.554	0.537	0.495	0.477	0.455
0.1 µM, coculture fibroblast: HCFa	0.7915	0.7	0.652	0.636	0.563	0.551	0.51	0.477	0.4456
0.1 µM, coculture fibroblast: HCPF	0.809	0.7608	0.703	0.642	0.6076	0.5841	0.54391	0.5181	0.5081
0.1 µM, coculture fibroblast: HHSteC	0.81	0.743	0.698	0.665	0.584	0.563	0.521	0.492	0.451
0.1 µM, coculture fibroblast: HMF	0.802	0.821	0.747	0.682	0.652	0.624	0.589	0.559	0.545
0.1 µM, coculture fibroblast: HPFa	0.8947	0.799	0.758	0.663	0.597	0.586	0.544	0.513	0.489
0.1 µM, coculture fibroblast: HUF	0.868	0.791	0.739	0.658	0.611	0.593	0.552	0.522	0.502
0.1 µM, coculture fibroblast: Hs5	0.82752	0.859	0.7937	0.7466	0.6828	0.629	0.587	0.552	0.551
0.1 µM, coculture fibroblast: Hs27A	0.6768	0.5696	0.52844	0.5502	0.425	0.405	0.372	0.352	0.359
0.1 µM, coculture fibroblast: Hs343T	0.813	0.8691	0.824	0.75	0.728	0.695	0.653	0.624	0.595
0.1 µM, coculture fibroblast: WS1	0.825	0.752	0.691	0.595	0.522	0.48	0.447	0.416	0.397
1 µM, coculture fibroblast: C12385	0.84315	0.784	0.724	0.67	0.618	0.602	0.581	0.562	0.561
1 µM, coculture fibroblast: H6013	0.796	0.75	0.752	0.749	0.701	0.71	0.676	0.668	0.622
1 µM, coculture fibroblast: H6019	0.812	0.724	0.6612	0.60257	0.5717	0.561	0.528	0.498	0.489
1 µM, coculture fibroblast: H6076	0.807	0.8182	0.775	0.736	0.688	0.675	0.643	0.625	0.638
1 µM, coculture fibroblast: H6231	0.795	0.806	0.723	0.623	0.623	0.596	0.557	0.526	0.51
1 µM, coculture fibroblast: HADF	0.756	0.684	0.646	0.652	0.539	0.504	0.471	0.448	0.445
1 µM, coculture fibroblast: HCFa	0.796	0.6986	0.667	0.652	0.571	0.547	0.495	0.452	0.409
1 µM, coculture fibroblast: HCPF	0.8066	0.771	0.728	0.694	0.6393	0.607	0.563	0.534	0.526
1 µM, coculture fibroblast: HHSteC	0.842	0.772	0.7441	0.72288	0.6512	0.627	0.579	0.547	0.509
1 µM, coculture fibroblast: HMF	0.767	0.824	0.736	0.621	0.612	0.577	0.521	0.491	0.466
1 µM, coculture fibroblast: HPFa	0.915	0.828	0.783	0.705	0.626	0.599	0.558	0.525	0.5
1 µM, coculture fibroblast: HUF	0.905	0.83137	0.778	0.708	0.655	0.635	0.585	0.559	0.538
1 µM, coculture fibroblast: Hs5	0.8335	0.886	0.8278	0.764	0.701	0.663	0.626	0.591	0.569
1 µM, coculture fibroblast: Hs27A	0.7392	0.685	0.6616	0.681	0.6	0.605	0.572	0.566	0.531
1 µM, coculture fibroblast: Hs343T	0.7724	0.825	0.751	0.642	0.6155	0.568	0.51	0.484	0.454
1 µM, coculture fibroblast: WS1	0.8074	0.72665	0.6513	0.5814	0.5222	0.4987	0.456	0.429	0.421
10 µM, coculture fibroblast: C12385	0.8835	0.8432	0.786	0.721	0.67	0.6411	0.613	0.581	0.5617
10 µM, coculture fibroblast: H6013	0.772	0.733	0.722	0.734	0.661	0.657	0.625	0.618	0.625
10 µM, coculture fibroblast: H6019	0.8566	0.8035	0.772	0.72	0.677	0.664	0.634	0.601	0.582
10 µM, coculture fibroblast: H6076	0.815	0.952	0.94	0.8549	0.847	0.8162	0.766	0.732	0.7484
10 µM, coculture fibroblast: H6231	0.8058	0.923	0.91	0.786	0.832	0.815	0.774	0.734	0.731
10 µM, coculture fibroblast: HADF	0.734	0.706	0.69	0.722	0.614	0.591	0.568	0.549	0.598
10 µM, coculture fibroblast: HCFa	0.801	0.773	0.765	0.769	0.666	0.648	0.611	0.578	0.572
10 µM, coculture fibroblast: HCPF	0.829	0.917	0.903	0.8	0.84	0.809	0.776	0.735	0.733
10 µM, coculture fibroblast: HHSteC	0.851	0.8328	0.8241	0.8026	0.712	0.687	0.639	0.605	0.582
10 µM, coculture fibroblast: HMF	0.789	0.932	0.896	0.769	0.7865	0.742	0.697	0.663	0.63
10 µM, coculture fibroblast: HPFa	0.949	0.896	0.846	0.753	0.694	0.675	0.636	0.598	0.576
10 µM, coculture fibroblast: HUF	0.897	0.85	0.811	0.751	0.712	0.684	0.648	0.622	0.6
10 µM, coculture fibroblast: Hs5	0.872	0.82	0.959	0.915	0.846	0.802	0.762	0.722	0.717
10 µM, coculture fibroblast: Hs27A	0.714	0.661	0.626	0.673	0.536	0.514	0.488	0.469	0.51
10 µM, coculture fibroblast: Hs343T	0.862	0.87	0.872	0.882	0.893	0.852	0.807	0.779	0.749
10 µM, coculture fibroblast: WS1	0.8783	0.8164	0.759	0.68	0.63	0.587	0.551	0.522	0.494
100 µM, coculture fibroblast: C12385	0.689	0.585	0.458	0.312	0.227	0.185	0.154	0.156	0.164
100 µM, coculture fibroblast: H6013	0.6948	0.6767	0.557	0.49	0.391	0.353	0.317	0.316	0.265
100 µM, coculture fibroblast: H6019	0.863	0.865	0.805	0.607	0.484	0.414	0.342	0.306	0.32
100 µM, coculture fibroblast: H6076	0.65	0.73	0.397	0.329	0.244	0.26	0.264	0.264	0.29
100 µM, coculture fibroblast: H6231	0.635	0.796	0.834	0.721	0.669	0.667	0.627	0.59	0.571
100 µM, coculture fibroblast: HADF	0.6384	0.603	0.541	0.447	0.307	0.26	0.24	0.218	0.176
100 µM, coculture fibroblast: HCFa	0.736	0.739	0.655	0.574	0.449	0.398	0.365	0.357	0.311
100 µM, coculture fibroblast: HCPF	0.685	0.814	0.779	0.565	0.533	0.497	0.439	0.398	0.394
100 µM, coculture fibroblast: HHSteC	0.697	0.646	0.516	0.441	0.366	0.376	0.387	0.399	0.336
100 µM, coculture fibroblast: HMF	0.674	0.832	0.452	0.317	0.217	0.219	0.222	0.227	0.236
100 µM, coculture fibroblast: HPFa	0.801	0.702	0.502	0.457	0.327	0.3039	0.284	0.309	0.319
100 µM, coculture fibroblast: HUF	0.829	0.787	0.713	0.646	0.638	0.606	0.568	0.526	0.482
100 µM, coculture fibroblast: Hs5	0.651	0.551	0.425	0.411	0.341	0.361	0.373	0.367	0.39
100 µM, coculture fibroblast: Hs27A	0.635	0.666	0.656	0.701	0.5242	0.494	0.426	0.38	0.319
100 µM, coculture fibroblast: Hs343T	0.655	0.776	0.465	0.392	0.283	0.298	0.305	0.316	0.327
100 µM, coculture fibroblast: WS1	0.718	0.651	0.563	0.385	0.293	0.248	0.211	0.222	0.24
